The source of these data is paper PMC4560775.

By UniProt entry, the sequences of proteins in these tests, tags left out. Residues count along the entry.
UniProt P29317, residues 24-976: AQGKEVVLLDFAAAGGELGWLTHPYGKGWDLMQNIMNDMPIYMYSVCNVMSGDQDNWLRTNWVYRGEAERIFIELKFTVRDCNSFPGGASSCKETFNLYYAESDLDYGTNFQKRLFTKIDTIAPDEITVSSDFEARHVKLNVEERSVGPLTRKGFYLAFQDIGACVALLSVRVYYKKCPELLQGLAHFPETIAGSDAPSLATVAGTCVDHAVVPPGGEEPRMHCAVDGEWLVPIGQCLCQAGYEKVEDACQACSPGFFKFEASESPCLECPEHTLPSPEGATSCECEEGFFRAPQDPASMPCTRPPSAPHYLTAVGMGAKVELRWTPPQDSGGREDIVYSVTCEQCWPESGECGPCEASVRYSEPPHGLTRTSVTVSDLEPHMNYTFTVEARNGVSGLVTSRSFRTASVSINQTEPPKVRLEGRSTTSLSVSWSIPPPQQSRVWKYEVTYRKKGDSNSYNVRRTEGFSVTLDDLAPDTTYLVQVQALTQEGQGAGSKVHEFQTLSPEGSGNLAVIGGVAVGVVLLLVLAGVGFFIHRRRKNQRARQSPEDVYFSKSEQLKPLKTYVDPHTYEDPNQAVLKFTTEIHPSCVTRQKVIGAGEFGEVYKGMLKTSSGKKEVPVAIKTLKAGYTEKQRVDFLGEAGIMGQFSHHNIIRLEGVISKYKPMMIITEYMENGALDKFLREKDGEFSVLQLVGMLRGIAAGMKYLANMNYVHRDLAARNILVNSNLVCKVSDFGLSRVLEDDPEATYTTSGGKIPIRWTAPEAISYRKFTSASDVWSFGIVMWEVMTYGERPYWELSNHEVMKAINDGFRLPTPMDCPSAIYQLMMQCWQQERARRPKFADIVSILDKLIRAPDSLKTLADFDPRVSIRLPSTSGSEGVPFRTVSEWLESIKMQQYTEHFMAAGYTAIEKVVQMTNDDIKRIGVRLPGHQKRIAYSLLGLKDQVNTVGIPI

No constants are given. Whether binding was seen depends on the method and setting. Binding seen in cells or lysates may run through a third protein. Some results given as binding are weak or reduced against the parent protein; the word gives no strength. Sequences can lack the tags named with a protein.

For this test, the target named is EphA2-mCitrine (human) (UniProt P29317). Nature of the test: FRET or BRET; FLIM-FRET in living Cos-7 cells; donor EphA2-mCitrine, acceptor mCherry-PTP1B D/A; no ligand; without or with co-expressed bfp-Rab11a.

B1: mCherry-tagged PTP1B-D181A (enzyme, UniProt P18031 1-435)
chain: MEMEKEFEQIDKSGSWAAIYQDIRHEASDFPCRVAKLPKNKNRNRYRDVSPFDHSRIKLHQEDNDYINASLIKMEEAQRSYILTQGPLPNTCGHFWEMVWEQKSRGVVMLNRVMEKGSLKCAQYWPQKEEKEMIFEDTNLKLTLISEDIKSYYTVRQLELENLTTQETREILHFHYTTWPAFGVPESPASFLNFLFKVRESGSLSPEHGPVVVHCSAGIGRSGTFCLADTCLLLMDKRKDPSSVDIKKVLLEMRKFRMGLIQTADQLRFSYLAVIEGAKFIMGDSSVQDQWKELSHEDLEPPPEHIPPPPRPPKRILEPHNGKCREFFPNHQWVKEETQEDKDCPIKEEKGSPLNAAPYGIESMSQDTEVRSRVVGGSLRGAQAASPAKGEPSLPEKDEDHALSYWKPFLVNMCVATVLTAGAYLCYRFLFNSNT
For the molecule B1, the binding result is given as “binds”.
